Results are given in words; binding and its absence hold for the method and conditions named. Binding seen in cells or lysates may run through a third protein. Here binding means that the protein was enriched with, or labelled near, the bait; the list need not be complete. Tags and fused reporters may be left off the sequences shown.

From publication PMC11009412, “Pathogenic mutations of human phosphorylation sites affect protein–protein interactions” (Nature Communications, 2024) come the findings set out here.

In the test the target is T1, BirA*-FLAG-GATAD1 wild-type (WT) (human) (UniProt Q8WUU5).
T1 sequence: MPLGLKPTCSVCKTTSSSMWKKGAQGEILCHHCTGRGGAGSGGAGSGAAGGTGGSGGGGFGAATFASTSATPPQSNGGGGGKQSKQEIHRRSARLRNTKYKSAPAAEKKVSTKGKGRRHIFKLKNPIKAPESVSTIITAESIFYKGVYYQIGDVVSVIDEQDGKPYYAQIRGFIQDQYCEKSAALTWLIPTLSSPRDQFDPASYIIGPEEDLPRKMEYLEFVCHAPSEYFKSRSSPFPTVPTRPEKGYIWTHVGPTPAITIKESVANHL
Put plainly: proximity labelling; BioID: BirA*-FLAG-GATAD1 variants in Flp-In-293 cells, tetracycline 24 h, 50 μM biotin overnight, streptavidin-sepharose enrichment, SILAC with label swap.

B1: EMSY (protein, UniProt Q7Z589 1-1322)
chain: MPVVWPTLLDLSRDECKRILRKLELEAYAGVISALRAQGDLTKEKKDLLGELSKVLSISTERHRAEVRRAVNDERLTTIAHNMSGPNSSSEWSIEGRRLVPLMPRLVPQTAFTVTANAVANAAIQHNASLPVPAETGSKEVVCYSYTSTTSTPTSTPVPSGSIATVKSPRPASPASNVVVLPSGSTVYVKSVSCSDEDEKPRKRRRTNSSSSSPVVLKEVPKAVVPVSKTITVPVSGSPKMSNIMQSIANSLPPHMSPVKITFTKPSTQTTNTTTQKVIIVTTSPSSTFVPNILSKSHNYAAVTKLVPTSVIASTTQKPPVVITASQSSLVSNSSSGSSSSTPSPIPNTVAVTAVVSSTPSVVMSTVAQGVSTSAIKMASTRLPSPKSLVSAPTQILAQFPKQHQQSPKQQLYQVQQQTQQQVAQPSPVSHQQQPQQSPLPPGIKPTIQIKQESGVKIITQQVQPSKILPKPVTATLPTSSNSPIMVVSSNGAIMTTKLVTTPTGTQATYTRPTVSPSIGRMAATPGAATYVKTTSGSIITVVPKSLATLGGKIISSNIVSGTTTKITTIPMTSKPNVIVVQKTTGKGTTIQGLPGKNVVTTLLNAGGEKTIQTVPTGAKPAILTATRPITKMIVTQPKGIGSTVQPAAKIIPTKIVYGQQGKTQVLIKPKPVTFQATVVSEQTRQLVTETLQQASRVAEAGNSSIQEGKEEPQNYTDSSSSSTESSQSSQDSQPVVHVIASRRQDWSEHEIAMETSPTIIYQDVSSESQSATSTIKALLELQQTTVKEKLESKPRQPTIDLSQMAVPIQMTQEKRHSPESPSIAVVESELVAEYITTERTDEGTEVAFPLLVSHRSQPQQPSQPQRTLLQHVAQSQTATQTSVVVKSIPASSPGAITHIMQQALSSHTAFTKHSEELGTEEGEVEEMDTLDPQTGLFYRSALTQSQSAKQQKLSQPPLEQTQLQVKTLQCFQTKQKQTIHLQADQLQHKLPQMPQLSIRHQKLTPLQQEQAQPKPDVQHTQHPMVAKDRQLPTLMAQPPQTVVQVLAVKTTQQLPKLQQAPNQPKIYVQPQTPQSQMSLPASSEKQTASQVEQPIITQGSSVTKITFEGRQPPTVTKITGGSSVPKLTSPVTSISPIQASEKTAVSDILKMSLMEAQIDTNVEHMIVDPPKKALATSMLTGEAGSLPSTHMVVAGMANSTPQQQKCRESCSSPSTVGSSLTTRKIDPPAVPATGQFMRIQNVGQKKAEESPAEIIIQAIPQYAIPCHSSSNVVVEPSGLLELNNFTSQQLDDEETAMEQDIDSSTEDGTEPSPSQSSAERS
For B1, the binding result was “binds”.
